Consider six molecules from US6368552B1, “Water treating agent and water treating method” (Kurita Water Industries Ltd., priority 1999, dated 2002).

Each structure is given as a SMILES string.

The nature of data set [1]: Corrosion prevention test with steel test pieces immersed in deionized water in a beaker. To be noted: 100 mg chemical in 500 ml deionized water, normal temp., starting pH 5.5, 5 days.
Data set [2] in a line: Laboratory electric boiler test: corrosion of SPCC steel test pieces in steam condensate, 96 hours.
Where [3] appears, read: steam condensate at 50° C., 96 hours, chemicals at stated conc. (mg/l) in softened feed water, boiler 183° C., 1 MPa.

With `CCCCCC1CCC(=O)O1` (stereo not drawn) [Example 1, γ-nonalactone], the results for the Corrosion rate in data set [1] and in data set [2] (setting [3]) were 6.1 mg/dm^2/day and 175 mg/dm^2/day, respectively.

Consider `CCCCCCC1CCC(=O)O1` (stereo not drawn) [Example 2, γ-decalactone], for which the Corrosion rate in data set [1] is recorded as 4.8 mg/dm^2/day.

Turning to `CCCCCCCC1CCC(=O)O1` (stereo not drawn) [Example 3, γ-undecalactone], the Corrosion rate in data set [1] was determined as 4.6 mg/dm^2/day; in data set [2] (setting [3]), 162 mg/dm^2/day.

For `C=CCc1ccc(O)c(OC)c1` [Example 4, Eugenol], in data set [1], the Corrosion rate is given as 5.6 mg/dm^2/day.

On to `CC=Cc1ccc(O)c(OC)c1` [Example 5, Isoeugenol], for which the values for the Corrosion rate in data set [1] and in data set [2] (setting [3]) were 4.7 mg/dm^2/day and 173 mg/dm^2/day, respectively.

On to `CCN(CC)CCO` [compound 5, Diethylethanolamine, reference compound], for which the Corrosion rate in data set [2] was 195 mg/dm^2/day.
